Measured values from publication PMC10938166.
Results are given in words; binding and its absence hold for the method and conditions named. Binding can be weak; no strength is given. For some assays here: In cells and extracts the contact can be indirect.

Legend:
[1] = target: hBSGΔ-FLAG (human basigin lacking the first immunoglobulin-like domain, N152Q/N186Q) (human); test: co-IP; purified hXKR8–hBSGΔ-FLAG–Fab complex in lipid nanodiscs (29 μg of protein) loaded onto anti-FLAG M2 magnetic beads, 4 °C, 2 h; wash buffer 20 mM Hepes pH 7.0, 100 mM NaCl, 1 mM EGTA; eluted with 3× FLAG peptide; SDS-PAGE, Coomassie Brilliant Blue staining; both purified
[2] = target: hBSGΔ-FLAG (human basigin lacking the first immunoglobulin-like domain, N152Q/N186Q) (human); test: cryo-EM structure; hXKR8–hBSGΔ-FLAG–Fab complex in lipid nanodiscs (soybean polar lipids, MSP1E3D1), 0.075% fluorinated Fos-choline 8; single-particle analysis, overall resolution 3.66 Å; both purified

B1: human XK-related 8 (hXKR8) (protein, UniProt Q9H6D3 1-395)
chain: MPWSSRGALLRDLVLGVLGTAAFLLDLGTDLWAAVQYALGGRYLWAALVLALLGLASVALQLFSWLWLRADPAGLHGSQPPRRCLALLHLLQLGYLYRCVQELRQGLLVWQQEEPSEFDLAYADFLALDISMLRLFETFLETAPQLTLVLAIMLQSGRAEYYQWVGICTSFLGISWALLDYHRALRTCLPSKPLLGLGSSVIYFLWNLLLLWPRVLAVALFSALFPSYVALHFLGLWLVLLLWVWLQGTDFMPDPSSEWLYRVTVATILYFSWFNVAEGRTRGRAIIHFAFLLSDSILLVATWVTHSSWLPSGIPLQLWLPVGCGCFFLGLALRLVYYHWLHPSCCWKPDPDQVDGARSLLSPEGYQLPQNRRMTHLAQKFFPKAKDEAASPVKG
- binding [1]: binds
- binding [2]: binds
